PubChem BioAssay AID1259308 | NCATS, 2017

Purpose: 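Candidate targets for better recombinant protein yield in mammalian cells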 (primary screen)
Cells: human HEK293 embryonic kidney cells stably expressing firefly luciferase (HEK-CMV-Luc2-Hygro)
Reagents: single siRNA against human genes, 0.8 pmol siRNA per well
Duration: 72 h
Measured: 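Luciferase light (ONE-Glo) measured on one replicate plate set and viability (CellTiter-Glo) on the other, scaled to a negative control siRNA, with robust z-scores and luciferase per cell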
Reading the numbers: total luciferase, z-score and total luciferase, % of control: higher = more reporter protein produced
Hit rule: 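An siRNA counts as active if its total luciferase robust z-score exceeds 3; genes with two or more such siRNAs out of three were retested with fresh siRNAs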
Calls: active = raised luciferase; inactive = no rise
Shown is an unselected part of about 59,000 reagents. About 1,510 of them (2.6%) count as active. 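Calls use total luciferase alone and ignore viability, so some active siRNAs may act by altering cell number.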 Unmarked entries are inactive. The numbers tell different reagents against one gene apart. Not all columns of the deposit are shown.

What did the screen give for SLC6A15 #1?
total luciferase, z-score: -1.65; total luciferase, % of control: 49

How did the screen score SLC6A15 #2?
total luciferase, z-score: 0.172; total luciferase, % of control: 85.3

Which result is listed for SLC6A15 #3?
total luciferase, z-score: -0.231; total luciferase, % of control: 77.3

For SF1 #1, how do the results read?
total luciferase, z-score: 1.22; total luciferase, % of control: 106

With SF1 #2, what was measured?
total luciferase, z-score: -0.0522; total luciferase, % of control: 80.8

What did the screen give for SF1 #3?
total luciferase, z-score: 2.12; total luciferase, % of control: 124

How did the screen score HSD11B1L #1?
total luciferase, z-score: 2.55; total luciferase, % of control: 133

Which result is listed for HSD11B1L #2?
total luciferase, z-score: 1.13; total luciferase, % of control: 104

What did the screen give for HSD11B1L #3?
total luciferase, z-score: -1.03; total luciferase, % of control: 61.4

With PIAS4 #1, how do the results read?
total luciferase, z-score: -0.133; total luciferase, % of control: 79.2

What is on record for PIAS4 #2?
total luciferase, z-score: 0.0802; total luciferase, % of control: 83.5

With PIAS4 #3, what does the deposit list?
total luciferase, z-score: -0.105; total luciferase, % of control: 79.8

How did the screen score DNAJC19 #1?
total luciferase, z-score: -1.55; total luciferase, % of control: 51

With DNAJC19 #2, what was measured?
total luciferase, z-score: -0.164; total luciferase, % of control: 78.6

With DNAJC19 #3, what does the deposit list?
total luciferase, z-score: 0.442; total luciferase, % of control: 90.7

How did the screen score NFXL1 #1?
total luciferase, z-score: -0.957; total luciferase, % of control: 62.9

How did the screen score NFXL1 #2?
total luciferase, z-score: 0.647; total luciferase, % of control: 94.7

For NFXL1 #3, what does the deposit list?
total luciferase, z-score: 0.0527; total luciferase, % of control: 82.9

What is on record for TMEM116 #1?
total luciferase, z-score: 1.07; total luciferase, % of control: 103

With TMEM116 #2, what was measured?
total luciferase, z-score: -0.273; total luciferase, % of control: 76.4

What did the screen give for TMEM116 #3?
total luciferase, z-score: -0.0885; total luciferase, % of control: 80.1

What did the screen give for TMEM116 #4?
total luciferase, z-score: -0.427; total luciferase, % of control: 73.4

With TMEM116 #5, how do the results read?
total luciferase, z-score: 1.35; total luciferase, % of control: 109

What did the screen give for TMEM116 #6?
total luciferase, z-score: -0.442; total luciferase, % of control: 73.1

For LINC02591 #1, how do the results read?
total luciferase, z-score: 0.676; total luciferase, % of control: 95.3

For LINC02591 #2, what does the deposit list?
total luciferase, z-score: 0.53; total luciferase, % of control: 92.4

How did the screen score LINC02591 #3?
total luciferase, z-score: -0.911; total luciferase, % of control: 63.8

How did the screen score POLR1H #1?
total luciferase, z-score: 0.787; total luciferase, % of control: 97.5

With POLR1H #2, what was measured?
total luciferase, z-score: -0.172; total luciferase, % of control: 78.5

Which result is listed for POLR1H #3?
total luciferase, z-score: -0.592; total luciferase, % of control: 70.1

What is on record for DYNLL1P7 #1?
total luciferase, z-score: -0.303; total luciferase, % of control: 75.9

For DYNLL1P7 #2, what does the deposit list?
total luciferase, z-score: 0.248; total luciferase, % of control: 86.8

What did the screen give for DYNLL1P7 #3?
total luciferase, z-score: -0.227; total luciferase, % of control: 77.4
